Data as given in PubChem BioAssay AID504793 (Drosophila RNAi Screening Center, 2011).

- Aim: 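Knock-downs allowing continued mitosis even though DNA is damaged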 (primary screen)
- Cell system: Drosophila S2R+ cells
- Reagents: long dsRNA against Drosophila genes, about 0.25 µg dsRNA per well
- Duration: 4 days of dsRNA, then 4 hours of drug before read-out
- Challenge: doxorubicin 0.5 µM for 4 hours to cause double-strand breaks, in cells also given a low, harmless dose of dsRNA against nbs to sensitise the assay
- Detection: 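Mitotic index as the number of phospho-histone H3-positive cells in each well following doxorubicin, given as raw counts without normalisation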
- Direction: mitotic cells: higher = more cells in mitosis, weaker G2 arrest
- Rule for the call: 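Genes are called active only when high mitotic counts were reproduced with independent dsRNAs and mitosis was checked for delay without damage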
- Calls: active = confirmed in follow-up tests; inactive = not confirmed
The deposit covers about 23,000 reagents; below is a random part of those with a known target gene and a result. Over the whole deposit, 62 (0.27%) are marked active. 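Calls come from follow-up tests whose scores are not deposited, so confirmed genes may have low counts here; counts are not normalised per plate.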 Raw values are not corrected between plates. The numbers tell different reagents against one gene apart. A plus sign joins genes that one reagent is predicted to hit.

| gene knocked down | reagent | mitotic cells, replicate 1 | mitotic cells, replicate 2 | Call |
| --- | --- | --- | --- | --- |
| Rcd5 (Reduction in Cnn dots 5) | 1 | 11 | – | active |
| Rcd5 (Reduction in Cnn dots 5) | 2 | 20 | – | active |
| CG8206 | 1 | 8 | – | inactive |
| inaD (inactivation no afterpotential D) | 1 | 4 | – | inactive |
| inaD (inactivation no afterpotential D) | 2 | 8 | – | inactive |
| peg (pegasus) | 1 | 4 | – | inactive |
| peg (pegasus) | 2 | 5 | – | inactive |
| Hmgcr (HMG Coenzyme A reductase) | 1 | 22 | – | inactive |
| bnk (bottleneck) | 1 | 10 | – | inactive |
| bnk (bottleneck) | 2 | 4 | – | inactive |
| Wdr82 (WD repeat domain 82) | 1 | 4 | 7 | inactive |
| Wdr82 (WD repeat domain 82) | 2 | 8 | – | inactive |
| CG3280 (retired record) | 1 | 7 | – | inactive |
| CG15740 | 1 | 4 | – | inactive |
| CG15740 | 2 | 8 | – | inactive |
| fwe (flower) | 1 | 4 | – | inactive |
| fwe (flower) | 2 | 5 | – | inactive |
| yellow-b | 1 | 3 | – | inactive |
| l(2)27Cb (retired record) | 1 | 1 | – | inactive |
| dup (double parked) | 1 | 22 | – | inactive |
| mRpS16 (mitochondrial ribosomal protein S16) | 1 | 9 | – | inactive |
| CG14692 | 1 | 4 | – | inactive |
| Mpcp1 | 1 | 7 | – | inactive |
| RpL15 (Ribosomal protein L15) | 1 | 7 | – | inactive |
| mRpL55 (mitochondrial ribosomal protein L55) | 1 | 8 | – | inactive |
| Tsp42Eb + CG30160 | 1 | 4 | – | inactive |
| Tsp42Eb + CG30160 | 2 | 5 | – | inactive |
| RpL13 (Ribosomal protein L13) | 1 | 22 | – | inactive |
| Nep6 (Neprilysin 6) | 1 | 6 | – | inactive |
| blp (black pearl) | 1 | 5 | – | inactive |
| blp (black pearl) | 2 | 5 | – | inactive |
| Gyc88E (Guanylyl cyclase at 88E) | 1 | 3 | – | inactive |
| Ptp4E (Protein tyrosine phosphatase 4E) | 1 | 10 | – | inactive |
| wech | 1 | 3 | – | inactive |
| SERCA (Sarco/endoplasmic reticulum Ca(2+)-ATPase) | 1 | 2 | – | inactive |
| SERCA (Sarco/endoplasmic reticulum Ca(2+)-ATPase) | 2 | 4 | – | inactive |
| Ag5r2 (Antigen 5-related 2) | 1 | 5 | – | inactive |
| CG10195 | 1 | 1 | – | inactive |
| CG13937 | 1 | 10 | – | inactive |
| Or67b (Odorant receptor 67b) | 1 | 4 | – | inactive |
| CG18336 | 1 | 2 | – | inactive |
| CapaR (Capability receptor) | 1 | 7 | – | inactive |
| CG10211 | 1 | 5 | – | inactive |
| CG10211 | 2 | 8 | – | inactive |
| CG18335 | 1 | 10 | – | inactive |
| CG18335 | 2 | 9 | – | inactive |
| HDAC6 (Histone deacetylase 6) | 1 | 6 | – | inactive |
| HDAC6 (Histone deacetylase 6) | 2 | 9 | – | inactive |

Only “mitotic cells, replicate 1”, for 13 of the entries above:
Wdr82 (WD repeat domain 82) #1	4
Wdr82 (WD repeat domain 82) #2	8
CG3280 (retired record)	7
CG15740 #1	4
CG15740 #2	8
fwe (flower) #1	4
fwe (flower) #2	5
yellow-b	3
l(2)27Cb (retired record)	1
dup (double parked)	22
mRpS16 (mitochondrial ribosomal protein S16)	9
CG14692	4
Mpcp1	7

Continued:
| gene knocked down | reagent | mitotic cells, replicate 1 | mitotic cells, replicate 2 | Call |
| --- | --- | --- | --- | --- |
| Ge-1 | 1 | 5 | – | inactive |
| Ge-1 | 2 | 8 | – | inactive |
| Fsn (F-box synaptic protein) | 1 | 8 | – | inactive |
| Fsn (F-box synaptic protein) | 2 | 5 | – | inactive |
| CG11437 | 1 | 4 | – | inactive |
| CG4653 | 1 | 7 | – | inactive |
| CG4653 | 2 | 10 | – | inactive |
| CG4653 | 3 | 6 | – | inactive |
| CG32755 | 1 | 17 | – | inactive |
| CG32755 | 2 | 4 | – | inactive |
| CG31832 | 1 | 9 | – | inactive |
| CG31832 | 2 | 3 | – | inactive |
| TfIIEalpha (Transcription factor IIEalpha) | 1 | 6 | – | inactive |
| TfIIEalpha (Transcription factor IIEalpha) | 2 | 10 | – | inactive |
| CG32987 | 1 | 9 | – | inactive |
| CG32987 | 2 | 5 | – | inactive |
| CG31515 | 1 | 11 | – | inactive |
| CG13000 | 1 | 16 | – | inactive |
| CG13000 | 2 | 4 | – | inactive |
| Hexo2 (Hexosaminidase 2) | 1 | 14 | – | inactive |
| east (enhanced adult sensory threshold) | 1 | 13 | – | inactive |
| east (enhanced adult sensory threshold) | 2 | 3 | – | inactive |
| CG3176 + CR18166 + CG32817 | 1 | 14 | – | inactive |
| CG3176 + CR18166 + CG32817 | 2 | 11 | – | inactive |
| CG3176 + CR18166 + CG32817 | 3 | 6 | – | inactive |
| CG3176 + CR18166 + CG32817 | 4 | 7 | – | inactive |
| CG18538 | 1 | 10 | – | inactive |
| CG10317 | 1 | 8 | – | inactive |
| CG13484 | 1 | 5 | – | inactive |
| CG13484 | 2 | 4 | – | inactive |
| DIP-epsilon (Dpr-interacting protein epsilon) | 1 | 13 | – | inactive |
| DIP-epsilon (Dpr-interacting protein epsilon) | 2 | 2 | – | inactive |
| DIP-epsilon (Dpr-interacting protein epsilon) | 3 | 9 | – | inactive |
| CG9577 | 1 | 13 | – | inactive |
| CG9577 | 2 | 10 | – | inactive |
| CG11980 | 1 | 4 | – | inactive |
| CG33232 (retired record) | 1 | 8 | – | inactive |
| CG33232 (retired record) | 2 | 5 | – | inactive |
| Noc3 (Nucleolar complex protein 3) | 1 | 8 | – | inactive |
| Neurl4 (Neuralized E3 ubiquitin protein ligase 4) | 1 | 2 | – | inactive |
| asp (abnormal spindle) | 1 | 8 | – | inactive |
| CG9416 | 1 | 10 | – | inactive |
| CG31386 (retired record) | 1 | 12 | – | inactive |
| CG31386 (retired record) | 2 | 3 | – | inactive |
| Mybbp1A (MYB binding protein 1a) | 1 | 7 | – | inactive |
| CG2816 | 1 | 3 | – | inactive |
| CG2816 | 2 | 2 | – | inactive |
| CG15549 | 1 | 19 | – | inactive |
| CG17687 | 1 | 6 | – | inactive |
| CG17687 | 2 | 6 | – | inactive |
| His3.3B (Histone H3.3B) | 1 | 6 | – | inactive |
| His3.3B (Histone H3.3B) | 2 | 15 | – | inactive |
| His3.3B (Histone H3.3B) | 3 | 11 | – | inactive |
| His3.3B (Histone H3.3B) | 4 | 3 | – | inactive |
| CG13676 | 1 | 3 | – | inactive |
| CG9287 | 1 | 8 | – | inactive |
| CG9287 | 2 | 10 | – | inactive |
| Spn88Ea (Serpin 88Ea) | 1 | 5 | – | inactive |
| Spn88Ea (Serpin 88Ea) | 2 | 11 | – | inactive |
| CG9452 | 1 | 4 | – | inactive |
| CG9452 | 2 | 13 | – | inactive |
| HPS4 (Hermansky-Pudlak Syndrome 4) | 1 | 6 | – | inactive |
